Data: US8845999B2 (The Regents of the University of California, priority 2005, dated 2014)
At least one structure is not confirmed: it was looked up by name or label, or the drawing left a doubt.

Target: T1, SGLT1 (Homo sapiens, UniProt P13866)
T1 sequence (P13866 1-664): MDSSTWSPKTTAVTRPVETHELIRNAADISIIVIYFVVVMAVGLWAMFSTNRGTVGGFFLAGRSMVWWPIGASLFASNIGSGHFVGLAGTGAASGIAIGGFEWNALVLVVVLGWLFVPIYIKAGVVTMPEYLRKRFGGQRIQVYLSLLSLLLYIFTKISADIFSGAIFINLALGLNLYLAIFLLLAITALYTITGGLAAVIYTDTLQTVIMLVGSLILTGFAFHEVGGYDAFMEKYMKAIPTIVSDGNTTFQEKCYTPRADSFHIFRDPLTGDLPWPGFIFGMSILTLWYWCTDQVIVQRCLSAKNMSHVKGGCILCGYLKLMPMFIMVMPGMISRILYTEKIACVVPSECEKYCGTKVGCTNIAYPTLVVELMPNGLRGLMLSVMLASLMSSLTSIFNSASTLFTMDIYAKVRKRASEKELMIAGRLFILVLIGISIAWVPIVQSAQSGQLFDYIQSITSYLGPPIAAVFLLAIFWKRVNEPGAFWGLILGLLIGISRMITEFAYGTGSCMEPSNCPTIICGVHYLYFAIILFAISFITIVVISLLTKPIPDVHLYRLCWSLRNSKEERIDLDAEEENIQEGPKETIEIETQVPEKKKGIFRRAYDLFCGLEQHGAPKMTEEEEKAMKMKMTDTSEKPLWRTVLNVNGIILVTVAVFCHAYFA
Assay: Kinetics of halogenated hexose transport by human SGLT1 expressed in Xenopus laevis oocytes, electrophysiological assay
Assay type: cell-based
Parameters: expressed in transfected cells; host or cells: Xenopus laevis oocytes
Source text: We have expressed human SGLT1 in the Xenopus laevis oocyte expression system and measured the kinetics of halogenated hexose transport using standard electrophysiological assays (see Diez-Sampedro et al. J. Biological Chemistry, 2001, 276: 49188-49194). Table 2 presents kinetic measurements of the SGLT1 affinities of various sugars. […] “Km.” is the Michaelis-Menten constant and refers to the ability of a sugar to be a substrate for a specific enzyme or transporter. The lower the Km, the better the substrate. “Vmax” refers to the maximum velocity of transport (or enzymatic reaction). Km is the concentration of substrate at ½ Vmax. “Ki” is an inhibition constant for a specific enzyme or transporter, obtained by competitive kinetics against a known substrate.

SMILES	Km [µM]
OCC1OC(O)C(O)C(F)C1O (centres unmarked)	5000
O=C[C@H](O)[C@@H](O)[C@H](F)[C@H](O)CO [4-F-4-deoxy-D-glucose]	70
